Experimental data published in patent US20150011466A1 (priority 2012, published 2015).
Where a sequence shows no end group, the ends are not given.

Assay: general procedure: Fmoc solid-phase peptide synthesis; Rink amide resin; HOBT, HBTU, HCTU
Conditions: whole synthesis, scale 5 μmol; for final purity (method not given): Method A

Substance	final purity (method not given)	isolated mass
GVFRSSEkRRSADIFI	77.2%	2 mg
TVFRSSEkRRSADIFI	83%	1.5 mg
TVFRSQEkRRSADIFI	73.7%	4.3 mg
QVFRSSEkRRSADIFI	72.4%	2.3 mg
TVGRSSEkRRSADIFI	85.8%	3.3 mg
